Source: publication doi:10.1101/2022.07.17.500360
Results are given in words; binding and its absence hold for the method and conditions named. Binding seen in cells or lysates may run through a third protein. Some entries that bind do so weakly or less than the wild type. Sequences can lack the tags named with a protein.

Chains of the proteins cited; added tags and fusions are not shown.
UniProt Q86UE8: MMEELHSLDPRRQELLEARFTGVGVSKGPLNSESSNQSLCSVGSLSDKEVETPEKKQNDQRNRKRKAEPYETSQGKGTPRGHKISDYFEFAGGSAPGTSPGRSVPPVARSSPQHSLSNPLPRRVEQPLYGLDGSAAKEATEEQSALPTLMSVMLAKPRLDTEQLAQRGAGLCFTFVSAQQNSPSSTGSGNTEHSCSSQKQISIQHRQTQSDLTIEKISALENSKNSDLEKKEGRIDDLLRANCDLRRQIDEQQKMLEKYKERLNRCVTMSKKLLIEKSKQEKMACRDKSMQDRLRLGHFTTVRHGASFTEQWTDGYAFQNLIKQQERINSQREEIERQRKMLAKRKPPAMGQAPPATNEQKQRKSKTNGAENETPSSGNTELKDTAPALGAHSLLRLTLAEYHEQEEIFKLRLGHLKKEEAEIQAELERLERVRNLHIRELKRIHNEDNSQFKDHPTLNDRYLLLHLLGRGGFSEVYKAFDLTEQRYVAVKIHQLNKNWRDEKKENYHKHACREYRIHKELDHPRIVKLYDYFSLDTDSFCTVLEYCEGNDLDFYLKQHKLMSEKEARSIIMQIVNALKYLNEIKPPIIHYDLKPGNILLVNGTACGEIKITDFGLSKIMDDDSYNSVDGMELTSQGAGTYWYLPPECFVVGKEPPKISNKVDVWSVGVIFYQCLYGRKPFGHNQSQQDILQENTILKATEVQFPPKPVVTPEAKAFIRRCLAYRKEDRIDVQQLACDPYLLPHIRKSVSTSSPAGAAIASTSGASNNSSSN

Molecular target: T1, CREB3 regulatory factor (CREBRF)-FLAG (human) (UniProt Q8IUR6)
T1 sequence: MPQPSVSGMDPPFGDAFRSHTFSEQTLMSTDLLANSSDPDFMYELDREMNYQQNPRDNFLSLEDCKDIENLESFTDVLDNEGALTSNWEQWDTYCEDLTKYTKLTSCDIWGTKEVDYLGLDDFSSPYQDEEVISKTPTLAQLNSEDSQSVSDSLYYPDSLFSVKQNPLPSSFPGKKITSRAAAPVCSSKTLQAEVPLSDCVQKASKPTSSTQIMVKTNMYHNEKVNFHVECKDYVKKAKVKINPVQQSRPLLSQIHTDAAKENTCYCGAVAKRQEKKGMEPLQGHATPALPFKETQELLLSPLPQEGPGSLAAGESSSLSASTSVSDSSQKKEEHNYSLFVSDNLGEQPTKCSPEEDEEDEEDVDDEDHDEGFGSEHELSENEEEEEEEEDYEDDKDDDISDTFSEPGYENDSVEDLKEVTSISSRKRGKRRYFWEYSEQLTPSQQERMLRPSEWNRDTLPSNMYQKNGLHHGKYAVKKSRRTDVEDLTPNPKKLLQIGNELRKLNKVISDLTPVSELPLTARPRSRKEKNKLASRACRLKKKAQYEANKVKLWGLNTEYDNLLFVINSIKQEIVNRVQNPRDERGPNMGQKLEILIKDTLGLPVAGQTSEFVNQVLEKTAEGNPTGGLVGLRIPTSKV
Test: co-IP

Tousled-like kinase 2 (TLK2) (from UniProt Q86UE8 1-772) (enzyme)
binding: binds
